The values that follow come from paper PMC6787224.

Protein sequences, listed by entry. Tags and fused reporters are not part of them. Residues count along the entry.
UniProt P07287, residues 1-290: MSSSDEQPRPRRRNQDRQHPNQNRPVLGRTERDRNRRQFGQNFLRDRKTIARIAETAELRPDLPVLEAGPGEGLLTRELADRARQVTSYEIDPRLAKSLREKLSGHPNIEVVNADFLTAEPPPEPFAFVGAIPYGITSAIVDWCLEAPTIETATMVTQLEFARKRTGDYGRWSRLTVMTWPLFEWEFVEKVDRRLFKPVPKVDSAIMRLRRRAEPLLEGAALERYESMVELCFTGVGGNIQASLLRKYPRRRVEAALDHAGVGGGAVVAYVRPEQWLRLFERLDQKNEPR

The target of the assay is C-terminally truncated ErmE (residues 1-290), N-terminally His8-tagged (Saccharopolyspora erythraea) (UniProt P07287). As to the kind of experiment: SEC; HiLoad 16/600 Superdex 75 pg; 20 mM Tris-SO4 pH 8, 0.3 M (NH4)2SO4, 2 mM beta-mercaptoethanol; 4 °C; both purified.

Results are given in words; binding and its absence hold for the method and conditions named.

Take “C-terminally truncated ErmE (residues 1-290), N-terminally His8-tagged (from UniProt P07287 1-290) (enzyme)”: the binding result is given as “no binding”.
